Test [1] addresses T1, Flag-tagged chondroitin polymerizing factor (CHPF) expressed in glioma cells (UniProt Q8IZ52).
T1 sequence: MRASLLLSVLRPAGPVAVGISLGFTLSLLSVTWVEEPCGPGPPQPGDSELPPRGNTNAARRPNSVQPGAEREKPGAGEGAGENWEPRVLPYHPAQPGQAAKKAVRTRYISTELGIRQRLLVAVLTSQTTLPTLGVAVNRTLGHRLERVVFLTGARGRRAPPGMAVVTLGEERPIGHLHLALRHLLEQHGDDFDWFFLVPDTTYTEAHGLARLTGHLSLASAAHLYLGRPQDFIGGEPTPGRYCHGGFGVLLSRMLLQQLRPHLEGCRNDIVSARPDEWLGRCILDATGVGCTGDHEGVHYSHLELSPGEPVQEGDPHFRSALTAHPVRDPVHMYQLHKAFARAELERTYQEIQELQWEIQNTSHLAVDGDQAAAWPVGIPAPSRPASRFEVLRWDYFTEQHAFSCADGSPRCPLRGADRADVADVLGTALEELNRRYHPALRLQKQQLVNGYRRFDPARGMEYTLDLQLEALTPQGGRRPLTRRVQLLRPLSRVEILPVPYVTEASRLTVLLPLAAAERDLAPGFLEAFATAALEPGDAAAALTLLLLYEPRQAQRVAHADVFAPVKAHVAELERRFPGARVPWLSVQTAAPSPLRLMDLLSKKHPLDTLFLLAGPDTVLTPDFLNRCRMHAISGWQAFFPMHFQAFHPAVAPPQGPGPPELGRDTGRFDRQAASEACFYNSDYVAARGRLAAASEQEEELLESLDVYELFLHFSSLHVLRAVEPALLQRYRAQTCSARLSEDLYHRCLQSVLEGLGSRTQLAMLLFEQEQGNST
Description: co-IP; lysates of glioma cells (U251, U87) transfected with flag-CHPF; anti-flag-CHPF or anti-MAD1L1 antibodies on protein A/G beads, 4 C; Western blot.

Test [2] deals with T2, MAD1L1-GST (UniProt Q9Y6D9).
T2 sequence: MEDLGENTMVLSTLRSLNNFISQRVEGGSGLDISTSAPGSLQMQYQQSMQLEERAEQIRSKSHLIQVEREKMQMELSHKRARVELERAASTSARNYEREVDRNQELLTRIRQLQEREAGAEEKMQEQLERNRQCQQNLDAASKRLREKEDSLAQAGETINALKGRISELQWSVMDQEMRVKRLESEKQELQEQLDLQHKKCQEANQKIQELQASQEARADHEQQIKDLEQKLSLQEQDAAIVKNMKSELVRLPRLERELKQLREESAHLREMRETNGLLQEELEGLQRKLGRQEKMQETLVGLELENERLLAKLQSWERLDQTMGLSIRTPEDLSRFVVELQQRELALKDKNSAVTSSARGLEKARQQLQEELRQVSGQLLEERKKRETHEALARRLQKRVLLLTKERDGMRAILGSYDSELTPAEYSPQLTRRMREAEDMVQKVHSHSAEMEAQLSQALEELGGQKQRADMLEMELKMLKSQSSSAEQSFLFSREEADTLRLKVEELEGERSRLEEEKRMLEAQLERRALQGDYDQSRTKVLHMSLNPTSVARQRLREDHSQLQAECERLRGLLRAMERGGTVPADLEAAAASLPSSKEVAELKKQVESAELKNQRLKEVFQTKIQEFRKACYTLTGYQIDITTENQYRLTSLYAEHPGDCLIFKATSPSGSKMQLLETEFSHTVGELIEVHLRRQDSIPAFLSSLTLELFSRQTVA
Description: pull-down; MAD1L1-GST from E. coli immobilised on glutathione agarose as bait; Flag-CHPF extracted from HEK293T cells as prey; 4 C, 2 h; five PBS washes; Western blot; only the target purified.

Results are given in words; binding and its absence hold for the method and conditions named. In cells and extracts the contact can be indirect. Some entries that bind do so weakly or less than the wild type. Tags and fused reporters may be left off the sequences shown.

B1: Mitotic arrest deficient 1-like 1 (MAD1L1), endogenous in glioma cells (protein, UniProt Q9Y6D9 1-718)
chain: MEDLGENTMVLSTLRSLNNFISQRVEGGSGLDISTSAPGSLQMQYQQSMQLEERAEQIRSKSHLIQVEREKMQMELSHKRARVELERAASTSARNYEREVDRNQELLTRIRQLQEREAGAEEKMQEQLERNRQCQQNLDAASKRLREKEDSLAQAGETINALKGRISELQWSVMDQEMRVKRLESEKQELQEQLDLQHKKCQEANQKIQELQASQEARADHEQQIKDLEQKLSLQEQDAAIVKNMKSELVRLPRLERELKQLREESAHLREMRETNGLLQEELEGLQRKLGRQEKMQETLVGLELENERLLAKLQSWERLDQTMGLSIRTPEDLSRFVVELQQRELALKDKNSAVTSSARGLEKARQQLQEELRQVSGQLLEERKKRETHEALARRLQKRVLLLTKERDGMRAILGSYDSELTPAEYSPQLTRRMREAEDMVQKVHSHSAEMEAQLSQALEELGGQKQRADMLEMELKMLKSQSSSAEQSFLFSREEADTLRLKVEELEGERSRLEEEKRMLEAQLERRALQGDYDQSRTKVLHMSLNPTSVARQRLREDHSQLQAECERLRGLLRAMERGGTVPADLEAAAASLPSSKEVAELKKQVESAELKNQRLKEVFQTKIQEFRKACYTLTGYQIDITTENQYRLTSLYAEHPGDCLIFKATSPSGSKMQLLETEFSHTVGELIEVHLRRQDSIPAFLSSLTLELFSRQTVA
Turning to B1, the binding entry in test [1] is on record as “binds”.

B2: Flag-CHPF fusion protein from HEK293T cells (protein, UniProt Q8IZ52 1-775)
chain: MRASLLLSVLRPAGPVAVGISLGFTLSLLSVTWVEEPCGPGPPQPGDSELPPRGNTNAARRPNSVQPGAEREKPGAGEGAGENWEPRVLPYHPAQPGQAAKKAVRTRYISTELGIRQRLLVAVLTSQTTLPTLGVAVNRTLGHRLERVVFLTGARGRRAPPGMAVVTLGEERPIGHLHLALRHLLEQHGDDFDWFFLVPDTTYTEAHGLARLTGHLSLASAAHLYLGRPQDFIGGEPTPGRYCHGGFGVLLSRMLLQQLRPHLEGCRNDIVSARPDEWLGRCILDATGVGCTGDHEGVHYSHLELSPGEPVQEGDPHFRSALTAHPVRDPVHMYQLHKAFARAELERTYQEIQELQWEIQNTSHLAVDGDQAAAWPVGIPAPSRPASRFEVLRWDYFTEQHAFSCADGSPRCPLRGADRADVADVLGTALEELNRRYHPALRLQKQQLVNGYRRFDPARGMEYTLDLQLEALTPQGGRRPLTRRVQLLRPLSRVEILPVPYVTEASRLTVLLPLAAAERDLAPGFLEAFATAALEPGDAAAALTLLLLYEPRQAQRVAHADVFAPVKAHVAELERRFPGARVPWLSVQTAAPSPLRLMDLLSKKHPLDTLFLLAGPDTVLTPDFLNRCRMHAISGWQAFFPMHFQAFHPAVAPPQGPGPPELGRDTGRFDRQAASEACFYNSDYVAARGRLAAASEQEEELLESLDVYELFLHFSSLHVLRAVEPALLQRYRAQTCSARLSEDLYHRCLQSVLEGLGSRTQLAMLLFEQEQGNST
Take B2: the binding result in test [2] is listed as “binds”.

These data come from publication PMC10637790.
